Binding data for 2 molecules are collected here from paper PMC11079029, “Intramolecular autoinhibition regulates the selectivity of PRPF40A tandem WW domains for proline-rich motifs” (Nature Communications, 2024).

The experiment concerns the target GFP-tagged PRPF40A N-terminal region (PRPF40A-Nter-WT) (human). In words: affinity purification with mass spectrometry; SILAC; GFP-tagged constructs expressed in HeLa cells, 2.5 mg lysate in mRIPA buffer on GFP-nanobody agarose beads, 1 h at 4 °C; compared with GFP alone.

No constants are given. Whether binding was seen depends on the method and setting. Binding seen in cells or lysates may run through a third protein. Here binding means that the protein was enriched with, or labelled near, the bait; the list need not be complete.

B1: LARP7, endogenous (protein, UniProt Q4G0J3 1-582)
chain: METESGNQEKVMEEESTEKKKEVEKKKRSRVKQVLADIAKQVDFWFGDANLHKDRFLREQIEKSRDGYVDISLLVSFNKMKKLTTDGKLIARALRSSAVVELDLEGTRIRRKKPLGERPKDEDERTVYVELLPKNVNHSWIERVFGKCGNVVYISIPHYKSTGDPKGFAFVEFETKEQAAKAIEFLNNPPEEAPRKPGIFPKTVKNKPIPALRVVEEKKKKKKKKGRMKKEDNIQAKEENMDTSNTSISKMKRSRPTSEGSDIESTEPQKQCSKKKKKRDRVEASSLPEVRTGKRKRSSSEDAESLAPRSKVKKIIQKDIIKEASEASKENRDIEISTEEEKDTGDLKDSSLLKTKRKHKKKHKERHKMGEEVIPLRVLSKSEWMDLKKEYLALQKASMASLKKTISQIKSESEMETDSGVPQNTGMKNEKTANREECRTQEKVNATGPQFVSGVIVKIISTEPLPGRKQVRDTLAAISEVLYVDLLEGDTECHARFKTPEDAQAVINAYTEINKKHCWKLEILSGDHEQRYWQKILVDRQAKLNQPREKKRGTEKLITKAEKIRLAKTQQASKHIRFSEYD
With B1, the binding entry is “binds”.

B2: MEPCE, endogenous (protein, UniProt Q7L2J0 1-689)
chain: MIEMAAEKEPFLVPAPPPPLKDESGGGGGPTVPPHQEAASGELRGGTERGPGRCAPSAGSPAAAVGRESPGAAATSSSGPQAQQHRGGGPQAQSHGEARLSDPPGRAAPPDVGEERRGGGGTELGPPAPPRPRNGYQPHRPPGGGGGKRRNSCNVGGGGGGFKHPAFKRRRRVNSDCDSVLPSNFLLGGNIFDPLNLNSLLDEEVSRTLNAETPKSSPLPAKGRDPVEILIPKDITDPLSLNTCTDEGHVVLASPLKTGRKRHRHRGQHHQQQQAAGGSESHPVPPTAPLTPLLHGEGASQQPRHRGQNRDAPQPYELNTAINCRDEVVSPLPSALQGPSGSLSAPPAASVISAPPSSSSRHRKRRRTSSKSEAGARGGGQGSKEKGRGSWGGRHHHHHPLPAAGFKKQQRKFQYGNYCKYYGYRNPSCEDGRLRVLKPEWFRGRDVLDLGCNVGHLTLSIACKWGPSRMVGLDIDSRLIHSARQNIRHYLSEELRLPPQTLEGDPGAEGEEGTTTVRKRSCFPASLTASRGPIAAPQVPLDGADTSVFPNNVVFVTGNYVLDRDDLVEAQTPEYDVVLCLSLTKWVHLNWGDEGLKRMFRRIYRHLRPGGILVLEPQPWSSYGKRKTLTETIYKNYYRIQLKPEQFSSYLTSPDVGFSSYELVATPHNTSKGFQRPVYLFHKARSPSH
As to B2, the binding entry was “binds”.
